Assay results reported in article PMC5579575, “Study of Alzheimer’s Disease-Related Biophysical Kinetics with a Microslit-Embedded Cantilever Sensor in a Liquid Environment” (Sensors (Basel, Switzerland), 2017).

Tested on: Aβ oligomeric intermediates (seeds) immobilized on Au surface
Assay: Topographic analysis (AFM) of Aβ aggregation on seed-immobilized Au surface

Substance: oligomeric seeds: heterogeneous oligomeric intermediates prepared from Aβ42 peptide incubated without agitation at 37 °C for 48 h
- surface roughness (seed-only surface (no monomer added)): 0.7341 nm
- observed structures on surface (seeds solely immobilized (Figure 5b)): sub-nm-sized particles were distributed

Substance: Aβ42: synthetic Aβ42 peptide, which has an identical sequence of 42-residue amino acids associated with human AD (Sigma-Aldrich)
- surface roughness (100 ng/mL monomeric Aβ added to seed-immobilized surface): 1.413 nm
- surface roughness (1 μg/mL monomeric Aβ added to seed-immobilized surface): 2.224 nm
- length of aggregates (10 μg/mL Aβ42 added to seed-immobilized surface (Figure 5e)): > 100 nm
- surface roughness (10 μg/mL monomeric Aβ added to seed-immobilized surface): 4.694 nm
- observed structures on surface (Aβ42 100 ng/mL and 1 μg/mL added to seed-immobilized surface (Figure 5c,d)): oligomeric structures with length of tens of nanometers were observed
